Results: publication PMC7600770
These are yes or no findings as the source states them, for the method shown. Binding seen in cells or lysates may run through a third protein. Here binding means that the protein was enriched with, or labelled near, the bait; the list need not be complete.

By UniProt entry, the sequences of proteins in these tests, tags left out. Where a name states a change or a piece, a line headed by the entry shows the natural chain unless it says otherwise.
UniProt O14980: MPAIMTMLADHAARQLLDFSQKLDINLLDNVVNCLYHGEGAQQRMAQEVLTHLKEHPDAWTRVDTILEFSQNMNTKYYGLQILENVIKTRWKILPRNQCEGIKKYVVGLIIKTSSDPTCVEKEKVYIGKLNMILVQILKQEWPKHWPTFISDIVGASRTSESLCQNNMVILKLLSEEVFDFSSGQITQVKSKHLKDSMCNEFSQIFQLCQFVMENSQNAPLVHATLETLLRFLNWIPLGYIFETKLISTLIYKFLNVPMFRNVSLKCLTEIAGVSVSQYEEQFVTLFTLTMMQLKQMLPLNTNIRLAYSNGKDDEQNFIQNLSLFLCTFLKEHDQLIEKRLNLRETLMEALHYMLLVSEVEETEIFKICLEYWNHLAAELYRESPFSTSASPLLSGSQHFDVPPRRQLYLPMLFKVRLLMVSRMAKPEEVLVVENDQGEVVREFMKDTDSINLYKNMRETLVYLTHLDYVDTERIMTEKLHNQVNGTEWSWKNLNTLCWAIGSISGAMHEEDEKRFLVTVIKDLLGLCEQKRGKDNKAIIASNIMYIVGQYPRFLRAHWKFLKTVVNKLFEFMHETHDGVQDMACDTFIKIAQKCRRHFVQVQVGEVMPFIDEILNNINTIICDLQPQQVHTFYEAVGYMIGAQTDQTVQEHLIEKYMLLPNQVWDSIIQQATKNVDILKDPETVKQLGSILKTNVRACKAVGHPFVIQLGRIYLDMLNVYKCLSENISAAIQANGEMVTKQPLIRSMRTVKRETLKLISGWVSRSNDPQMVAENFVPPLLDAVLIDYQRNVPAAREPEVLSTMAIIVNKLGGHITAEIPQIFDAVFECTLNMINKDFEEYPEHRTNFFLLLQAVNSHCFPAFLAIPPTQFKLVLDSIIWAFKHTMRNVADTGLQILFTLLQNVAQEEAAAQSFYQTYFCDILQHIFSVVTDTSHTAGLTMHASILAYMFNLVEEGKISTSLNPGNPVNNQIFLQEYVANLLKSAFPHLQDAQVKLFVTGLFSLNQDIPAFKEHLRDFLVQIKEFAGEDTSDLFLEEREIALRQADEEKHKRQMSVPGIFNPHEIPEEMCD
UniProt Q9UJV9: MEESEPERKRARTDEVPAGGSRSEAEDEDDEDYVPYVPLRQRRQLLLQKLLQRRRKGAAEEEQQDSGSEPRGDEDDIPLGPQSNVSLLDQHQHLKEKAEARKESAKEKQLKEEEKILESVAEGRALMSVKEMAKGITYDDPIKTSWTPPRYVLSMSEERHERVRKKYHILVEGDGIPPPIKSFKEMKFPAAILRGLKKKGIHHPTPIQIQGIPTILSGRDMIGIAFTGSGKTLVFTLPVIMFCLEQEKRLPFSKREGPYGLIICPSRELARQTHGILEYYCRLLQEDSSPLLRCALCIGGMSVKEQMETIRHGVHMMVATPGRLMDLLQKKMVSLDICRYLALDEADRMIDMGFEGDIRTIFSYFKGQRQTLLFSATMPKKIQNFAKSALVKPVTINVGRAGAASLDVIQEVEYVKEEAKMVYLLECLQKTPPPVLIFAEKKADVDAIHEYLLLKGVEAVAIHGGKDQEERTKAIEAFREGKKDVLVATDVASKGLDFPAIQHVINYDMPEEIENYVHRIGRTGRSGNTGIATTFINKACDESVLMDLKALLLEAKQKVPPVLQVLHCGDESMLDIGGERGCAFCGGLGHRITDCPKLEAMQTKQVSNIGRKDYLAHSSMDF
UniProt Q14974: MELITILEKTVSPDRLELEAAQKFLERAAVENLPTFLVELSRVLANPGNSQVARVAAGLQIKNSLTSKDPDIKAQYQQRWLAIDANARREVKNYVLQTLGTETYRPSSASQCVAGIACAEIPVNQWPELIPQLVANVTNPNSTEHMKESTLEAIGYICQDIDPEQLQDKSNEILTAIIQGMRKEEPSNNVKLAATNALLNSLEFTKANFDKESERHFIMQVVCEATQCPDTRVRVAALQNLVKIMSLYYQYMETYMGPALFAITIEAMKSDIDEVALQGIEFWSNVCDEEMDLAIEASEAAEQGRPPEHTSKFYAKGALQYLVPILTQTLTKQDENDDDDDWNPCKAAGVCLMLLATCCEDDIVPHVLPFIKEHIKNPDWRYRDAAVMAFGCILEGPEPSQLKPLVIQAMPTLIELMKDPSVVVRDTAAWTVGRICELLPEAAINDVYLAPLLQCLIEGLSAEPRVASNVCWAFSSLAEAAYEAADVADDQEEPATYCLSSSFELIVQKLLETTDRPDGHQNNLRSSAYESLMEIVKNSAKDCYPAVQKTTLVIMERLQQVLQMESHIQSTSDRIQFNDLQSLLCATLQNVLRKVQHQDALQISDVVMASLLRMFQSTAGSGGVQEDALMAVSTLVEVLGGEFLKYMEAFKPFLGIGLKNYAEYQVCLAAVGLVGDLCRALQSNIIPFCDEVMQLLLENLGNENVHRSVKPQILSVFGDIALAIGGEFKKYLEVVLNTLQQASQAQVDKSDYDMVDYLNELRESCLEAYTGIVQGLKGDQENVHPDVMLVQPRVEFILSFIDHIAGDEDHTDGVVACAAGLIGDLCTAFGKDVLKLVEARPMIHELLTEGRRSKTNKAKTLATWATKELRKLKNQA

What was measured:
[1] = target: exportin 1 (XPO1), wild type (human (endogenous in U2940 and K1106)) (UniProt O14980); assay: affinity purification with mass spectrometry; endogenous XPO1 immunoprecipitated with anti-XPO1 Ab on Dynabeads Protein A from whole-cell lysates of K1106 and MedB1 cells (25 mM Tris-HCl pH7.5, 150 mM NaCl, 5 mM EDTA, 10% glycerol, 0.5% NP40); Ig of the same isotype as control; four biological replicates; trypsin digestion, nano-LC-MS
[2] = target: exportin 1 E571K mutant (XPO1^E571K) (human (endogenous in MedB1 and UH-01)) (UniProt O14980); assay: as above

Row | Substance | binding [1] | binding [2]
1 | DDX41 (from UniProt Q9UJV9 1-622) | binds | 
2 | karyopherin β1 (importin β1, KPNB1, IPO1) (from UniProt Q14974 1-876) |  | binds
